Laboratory results: US11918574B2, “Method of treating cancer associated with a RAS mutation” (BeyondSpring Pharmaceuticals, Inc., priority 2015, dated 2024)
At least one compound was matched to its structure with a doubt left.

Test system: PDGF-induced gliomas
Assay: PDGF-induced model of glioma, response to radiation and temozolomide
Format: in vivo, mice
Details: temozolomide 25 mg/kg daily for 12 days; T2 weighted MRI; FIG. 2

## Cn1nnc2c(C(N)=O)ncn2c1=O [temozolomide]
  tumor volume response: shrank in volume
